Laboratory results from patent EP0326628A1, “Method for inhibiting the release of histamine” (VIPONT PHARMACEUTICAL, INC., priority 1988, dated 1989).
For at least one compound, name, drawing or mass did not settle the structure.

Test system: mast cells
Test: Histamine release from rat isolated peritoneal mast cells and its inhibition
Format: cell-based, male Wistar rat
Experimental: In exemplifying the invention, mast cells were isolated from the peritoneal fluid of male Wistar rat as described in Sugiyama, K. (1971) Japan J. Pharmacol. 21, 209-226. The mast cells were suspended in a phosphate buffered saline solution consisting of 154 mM sodium chloride, 2.7mM potassium chloride, 0.9 mM calcium chloride, 6.7 mM KH₂PO₄-Na₂HPO₄, (pH 7.3), and 0.01% bovine serum albumin obtained from Sigma.
For the determination of histamine release and its inhibition by sangainarine., mast cells at a cell density of 10⁵ cells/ml suspended in 0.5 ml of phosphate-buffered saline, were incubated at 37°C for 10 minutes with histamine releasers, more about which is stated below. Sanguinarine was added 5 minutes before the specific histamine releaser. After the action was terminated by the addition of 1.5 ml of ice-cold phosphate-buffered saline solution, the samples were centrifuged at 2,000 rpm for 15 minutes. The histamine in the supernatants and precipitates was determined according to the method of Shore, P.A., Burkhalter, A. and Cohn N.H. (1959) J. Pharmacol. Exp Ther. 127, 182-186. Release of histamine was expressed as a percentage of the total cell content. Percentages of inhibition by sanguinarine were measured according to the following equation: [formula] The sanguinarine chloride was provided from Vipont Laboratories Inc. and is manufactured in the manner disclosed above. […]

C[n+]1cc2c3c(ccc2c2ccc4cc5c(cc4c21)OCO5)OCO3 [Sanguinarine, sanguinarine]
Inhibition of histamine release stimulated by compound 48/80 (Sanguinarine 1-10µ M): inhibited | Histamine release induced by sanguinarine itself (without releaser, concentration less than 100µ M): not apparent
